Assay results taken from the supplement of paper PMC9233669.
This sample is rich in variants without activity.

Columns and labels:
biotinyl-Trp-oxazolone = experiment: self-aminoacylation, catalytic enhancement (BWO) (fold over background); higher = more active; k-Seq, kA / k0A0; sequences stand for … in GGGAAUGGAUCCACAUCUACGAAUUC…UUCACUGCAGACUUGACGAAGCUG
Procedure, shortened: (§1)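 Mutagenized RNA pools with a 21-nt variable region (0.43 μM) were reacted with each biotinyl-aminoacyl-oxazolone at 2–1250 μM for 90 minutes at room temperature, in 50 μL HEPES/NaCl/KCl/MgCl2/CaCl2 buffer containing 5% acetonitrile at pH 6.9–7.0. RNA captured on streptavidin was quantified by triplicate qPCR and by Illumina sequencing. The fraction reacted for each sequence was fit to a pseudo-first-order model with bootstrapping, and catalytic enhancement is the median kA divided by the uncatalyzed rate, taken as the low-activity peak of a bimodal Gaussian fit.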

biotinyl-Leu-oxazolone = experiment: self-aminoacylation, catalytic enhancement (BLO) (fold over background); higher = more active; k-Seq, kA / k0A0; sequences stand for … in GGGAAUGGAUCCACAUCUACGAAUUC…UUCACUGCAGACUUGACGAAGCUG
Procedure, shortened: as §1

biotinyl-Val-oxazolone = experiment: self-aminoacylation, catalytic enhancement (BVO) (fold over background); higher = more active; k-Seq, kA / k0A0; sequences stand for … in GGGAAUGGAUCCACAUCUACGAAUUC…UUCACUGCAGACUUGACGAAGCUG
Procedure, shortened: as §1

biotinyl-Ile-oxazolone = experiment: self-aminoacylation, catalytic enhancement (BIO) (fold over background); higher = more active; k-Seq, kA / k0A0; sequences stand for … in GGGAAUGGAUCCACAUCUACGAAUUC…UUCACUGCAGACUUGACGAAGCUG
Procedure, shortened: as §1

biotinyl-Met-oxazolone = experiment: self-aminoacylation, catalytic enhancement (BMO) (fold over background); higher = more active; k-Seq, kA / k0A0; sequences stand for … in GGGAAUGGAUCCACAUCUACGAAUUC…UUCACUGCAGACUUGACGAAGCUG
Procedure, shortened: as §1

biotinyl-Phe-oxazolone = experiment: self-aminoacylation, catalytic enhancement (BFO) (fold over background); higher = more active; k-Seq, kA / k0A0; sequences stand for … in GGGAAUGGAUCCACAUCUACGAAUUC…UUCACUGCAGACUUGACGAAGCUG
Procedure, shortened: as §1

Row | Sequence | self-aminoacylation (biotinyl-Trp-oxazolone) | self-aminoacylation (biotinyl-Leu-oxazolone) | self-aminoacylation (biotinyl-Val-oxazolone) | self-aminoacylation (biotinyl-Ile-oxazolone) | self-aminoacylation (biotinyl-Met-oxazolone) | self-aminoacylation (biotinyl-Phe-oxazolone)
1 | CCACACUUCAAGCAAUCGAUA [Fam1B.1 aminoacylation ribozyme variant] | 0.339 | 0.47 | 0.784 | 0.733 | 0.579 | 0.791
2 | CCACACUUCAAGCAAUCGAUU [Fam1B.1 aminoacylation ribozyme variant] | 0.894 | 0.644 | 0.855 | 0.879 | 0.726 | 0.863
3 | CCACACUUCAAGCAAUCGUUA [Fam1B.1 aminoacylation ribozyme variant] | 0.757 | 0.751 | 1.22 | 1.02 | 0.884 | 1.1
4 | CCACACUUCAAGCAAUCGUUU [Fam1B.1 aminoacylation ribozyme variant] | 1.1 | 0.785 | 1.22 | 1.29 | 0.937 | 0.913
5 | CCACACUUCAAGCAAUCUGUU [Fam1B.1 aminoacylation ribozyme variant] | 0.348 | 0.52 | 0.66 | 0.605 | 0.602 | 0.687
6 | CCACACUUCAAGCAAUGAGUC [Fam1B.1 aminoacylation ribozyme variant] | 0.519 | 0.564 | 0.568 | 0.576 | 0.484 | 1.35
7 | CCACACUUCAAGCAAUGCGUC [Fam1B.1 aminoacylation ribozyme variant] | 1.06 | 0.86 | 0.963 | 1.03 | 0.967 | 1.08
8 | CCACACUUCAAGCAAUGGGGC [Fam1B.1 aminoacylation ribozyme variant] | 1.23 | 1.19 | 1.57 | 1.43 | 1.57 | 1.33
9 | CCACACUUCAAGCAAUUGGCC [Fam1B.1 aminoacylation ribozyme variant] | 3.51 | 3.18 | 4.13 | 2.77 | 2.58 | 2.34
10 | CCACACUUCAAGCAAUUGGUU [Fam1B.1 aminoacylation ribozyme variant] | 1.11 | 1.23 | 1.29 | 1.16 | 1 | 1.04
11 | CCACACUUCAAGCACUAGGUC [Fam1B.1 aminoacylation ribozyme variant] | 0.669 | 0.427 | 0.538 | 0.524 | 0.413 | 0.813
12 | CCACACUUCAAGCACUCGGUA [Fam1B.1 aminoacylation ribozyme variant] | 1.56 | 1.51 | 1.53 | 1.29 | 1.31 | 0.635
13 | CCACACUUCAAGCAUUCGGCC [Fam1B.1 aminoacylation ribozyme variant] | 1.69 | 1.63 | 1.99 | 1.84 | 1.25 | 0.749
14 | CCACACUUCAAGCCAGCGGUC [Fam1B.1 aminoacylation ribozyme variant] | 1.28 | 1.44 | 1.47 | 1.36 | 0.988 | 0.92
15 | CCACACUUCAAGCGUUCGGUC [Fam1B.1 aminoacylation ribozyme variant] | 0.81 | 0.844 | 1.13 | 0.949 | 1.01 | 0.609
16 | CCACACUUCAAGCUAUCAGUC [Fam1B.1 aminoacylation ribozyme variant] | 0.589 | 0.651 | 0.949 | 0.82 | 0.658 | 1.16
17 | CCACACUUCAAGCUAUCGAUC [Fam1B.1 aminoacylation ribozyme variant] | 0.519 | 0.537 | 0.766 | 0.681 | 0.507 | 1.26
18 | CCACACUUCAAGCUAUCGGUC [Fam1B.1 aminoacylation ribozyme variant] | 0.677 | 0.675 | 0.961 | 0.846 | 0.621 | 1.05
19 | CCACACUUCAAGGAAUCGAUC [Fam1B.1 aminoacylation ribozyme variant] | 0.395 | 0.416 | 0.489 | 0.484 | 0.419 | 0.608
20 | CCACACUUCAAGGAAUCGCUC [Fam1B.1 aminoacylation ribozyme variant] | 1.59 | 1.99 | 1.44 | 1.62 | 1.48 | 0.771
21 | CCACACUUCAAGGAAUCGGCC [Fam1B.1 aminoacylation ribozyme variant] | 4.4 | 2.39 | 2.4 | 1.89 | 2.08 | 1.42
22 | CCACACUUCAAGGGAUCGGUC [Fam1B.1 aminoacylation ribozyme variant] | 1.38 | 1.48 | 0.944 | 0.943 | 1.34 | 1.05
23 | CCACACUUCAAGUAAACGGUC [Fam1B.1 aminoacylation ribozyme variant] | 0.404 | 0.524 | 0.707 | 0.6 | 0.584 | 0.705
24 | CCACACUUCAAGUAAUCGGUU [Fam1B.1 aminoacylation ribozyme variant] | 1.71 | 1.16 | 1.28 | 1.17 | 1.11 | 1.65
25 | CCACACUUCAAGUAAUCUGUC [Fam1B.1 aminoacylation ribozyme variant] | 0.361 | 0.449 | 0.496 | 0.451 | 0.47 | 0.818
26 | CCACACUUCAAUCAAUCGGGC [Fam1B.1 aminoacylation ribozyme variant] | 1.45 | 1.16 | 1.79 | 1.4 | 1.55 | 0.522

Row | Sequence | self-aminoacylation (biotinyl-Trp-oxazolone) | self-aminoacylation (biotinyl-Leu-oxazolone) | self-aminoacylation (biotinyl-Val-oxazolone) | self-aminoacylation (biotinyl-Ile-oxazolone) | self-aminoacylation (biotinyl-Met-oxazolone) | self-aminoacylation (biotinyl-Phe-oxazolone)
27 | CCACACUUCACGCAACCGGUC [Fam1B.1 aminoacylation ribozyme variant] | 0.831 | 1.55 | 1.55 | 1.24 | 1.21 | 0.978
28 | CCACACUUCACGCAAGCGGUC [Fam1B.1 aminoacylation ribozyme variant] | 0.776 | 1.22 | 1.41 | 1.31 | 1.33 | 0.897
29 | CCACACUUCACGCAAUAGGUC [Fam1B.1 aminoacylation ribozyme variant] | 0.618 | 0.747 | 0.868 | 0.814 | 0.763 | 0.901
30 | CCACACUUCACGCAAUCGGUC [Fam1B.1 aminoacylation ribozyme variant] | 0.865 | 0.883 | 1.13 | 0.959 | 0.853 | 0.864
31 | CCACACUUCACGCAAUCUGUC [Fam1B.1 aminoacylation ribozyme variant] | 0.464 | 0.447 | 0.678 | 0.481 | 0.472 | 0.436
32 | CCACACUUCACGCAAUGGGUC [Fam1B.1 aminoacylation ribozyme variant] | 0.782 | 1.18 | 1.58 | 1.05 | 0.99 | 0.831
33 | CCACACUUCACUCAAUCGGUC [Fam1B.1 aminoacylation ribozyme variant] | 0.649 | 0.628 | 0.694 | 0.705 | 0.59 | 0.527
34 | CCACACUUCAGGCAAGCGGUC [Fam1B.1 aminoacylation ribozyme variant] | 0.796 | 1.06 | 1.33 | 1.32 | 1.31 | 0.61
35 | CCACACUUCAGGCAAUCGGUA [Fam1B.1 aminoacylation ribozyme variant] | 1.04 | 1.23 | 1.33 | 1.24 | 1.43 | 1.97
36 | CCACACUUCAUACAAUCGGUC [Fam1B.1 aminoacylation ribozyme variant] | 0.726 | 0.703 | 0.744 | 0.618 | 0.608 | 0.729
37 | CCACACUUCAUGCAAUCAGUC [Fam1B.1 aminoacylation ribozyme variant] | 0.427 | 0.634 | 0.751 | 0.731 | 0.628 | 0.895
38 | CCACACUUCAUGUAAUCGGUC [Fam1B.1 aminoacylation ribozyme variant] | 0.435 | 0.6 | 0.72 | 0.722 | 0.506 | 0.62
39 | CCACACUUCCAACAAUCGGUC [Fam1B.1 aminoacylation ribozyme variant] | 0.919 | 0.729 | 0.829 | 0.697 | 0.814 | 1.55
40 | CCACACUUCCAGCAAUGGGUC [Fam1B.1 aminoacylation ribozyme variant] | 0.884 | 0.88 | 1.38 | 1.34 | 0.956 | 1.22
41 | CCACACUUCGAGCAAUGGGUC [Fam1B.1 aminoacylation ribozyme variant] | 0.654 | 0.845 | 0.934 | 1 | 0.798 | 0.642
42 | CCACACUUCUAGGAAUCGGUC [Fam1B.1 aminoacylation ribozyme variant] | 0.948 | 1.08 | 1.04 | 0.865 | 0.883 | 1.03
43 | CCACACUUGAAACAAUCGGUC [Fam1B.1 aminoacylation ribozyme variant] | 1.15 | 0.61 | 0.885 | 0.893 | 0.892 | 1.07
44 | CCACACUUGAAGCAAUCGGGC [Fam1B.1 aminoacylation ribozyme variant] | 2.26 | 1.57 | 2.63 | 1.55 | 1.34 | 5.71
45 | CCACACUUGAAGCAAUCUGUC [Fam1B.1 aminoacylation ribozyme variant] | 0.36 | 0.288 | 0.406 | 0.442 | 0.434 | 0.447
46 | CCACAGUCCAAGCAAUCGGUC [Fam1B.1 aminoacylation ribozyme variant] | 1.73 | 1.1 | 1.48 | 0.927 | 1.06 | 1.46
47 | CCACAGUUCAAGCAAUCUGUC [Fam1B.1 aminoacylation ribozyme variant] | 0.346 | 0.371 | 0.54 | 0.46 | 0.305 | 0.586
48 | CCACAGUUCAAGCAAUUGGUC [Fam1B.1 aminoacylation ribozyme variant] | 0.805 | 0.819 | 0.727 | 0.856 | 0.895 | 0.514
49 | CCACAGUUCCAGCAAUCGGUC [Fam1B.1 aminoacylation ribozyme variant] | 0.743 | 1.71 | 1.56 | 1.61 | 1.19 | 1.17
50 | CCACAUUGCAAGCAAUCGGUC [Fam1B.1 aminoacylation ribozyme variant] | 1.58 | 1.87 | 1.68 | 1.75 | 1.67 | 1.99
51 | CCACAUUUAAAGCAAUCGGUC [Fam1B.1 aminoacylation ribozyme variant] | 0.774 | 1.14 | 1.13 | 1.23 | 1.03 | 1.12
